Results are given in words; binding and its absence hold for the method and conditions named. Some binding calls cover weakened binding; strength is not graded here. Sequences can lack the tags named with a protein.

The chains behind the UniProt entries cited, without tags or fusion partners.
UniProt O07779: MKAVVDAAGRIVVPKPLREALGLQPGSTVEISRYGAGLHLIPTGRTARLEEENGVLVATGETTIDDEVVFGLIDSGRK

Holding throughout (assay): co-purification (His-tag affinity, size exclusion)
In assay [1] the target is T1, VapC27 (Mycobacterium tuberculosis) (UniProt P9WF83).
T1 sequence: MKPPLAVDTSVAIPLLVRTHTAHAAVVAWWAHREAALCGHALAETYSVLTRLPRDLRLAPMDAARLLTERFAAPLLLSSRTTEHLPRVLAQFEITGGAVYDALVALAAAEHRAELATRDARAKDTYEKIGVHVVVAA

The target in assay [2] is T2, VapC29 (Mycobacterium tuberculosis) (UniProt P9WF79).
T2 sequence: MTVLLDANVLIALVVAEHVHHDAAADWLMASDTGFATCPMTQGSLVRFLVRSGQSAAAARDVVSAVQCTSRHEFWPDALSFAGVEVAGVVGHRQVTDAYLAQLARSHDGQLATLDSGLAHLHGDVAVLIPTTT

Assay [3] concerns the target T3, VapC39 (Mycobacterium tuberculosis) (UniProt P9WF63).
T3 sequence: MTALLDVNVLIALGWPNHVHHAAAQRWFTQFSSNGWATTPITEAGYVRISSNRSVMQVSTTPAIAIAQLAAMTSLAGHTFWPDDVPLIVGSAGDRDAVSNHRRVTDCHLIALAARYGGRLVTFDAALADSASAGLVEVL

The target of assay [4] is T4, VapC1 (Mycobacterium tuberculosis) (UniProt P9WFC1).
T4 sequence: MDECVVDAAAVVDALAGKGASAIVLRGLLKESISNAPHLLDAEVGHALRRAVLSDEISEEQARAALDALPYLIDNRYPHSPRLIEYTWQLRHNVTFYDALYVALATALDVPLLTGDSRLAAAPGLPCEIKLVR

Assay [5] addresses T5, VapC19 (Mycobacterium tuberculosis) (UniProt P9WF93).
T5 sequence: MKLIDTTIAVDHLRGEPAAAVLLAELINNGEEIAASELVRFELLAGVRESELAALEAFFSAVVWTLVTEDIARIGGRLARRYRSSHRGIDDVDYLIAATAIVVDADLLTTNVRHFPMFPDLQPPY

For the molecule VapB27 (from UniProt O07779 1-78), the binding entry in assay [1] was “binds”.

B1: VapB29 (protein, UniProt P9WJ37 1-75)
chain: MRTTIDLPQDLHKQALAIARDTHRTLSETVADLMRRGLAANRPTALSSDPRTGLPLVSVGTVVTSEDVRSLEDEQ
Consider B1, for which the binding entry in assay [2] is on record as “binds”.

B2: VapB39 (protein, UniProt P9WJ23 1-74)
chain: MRTTLQIDDDVLEDARSIARSEGKSVGAVISELARRSLRPVGIVEVDGFPVFDVPPDAPTVTSEDVVRALEDDV
On to B2, for which the binding entry in assay [3] is “binds”.

B3: VapB1 (protein, UniProt P0CW29 1-79)
chain: MATIQVRDLPEDVAETYRRRATAAGQSLQTYMRTKLIEGVRGRDKAEAIEILEQALASTASPGISRETIEASRRELRGG
As for B3, the binding result in assay [4] is “binds”.

B4: VapB19 (protein, UniProt P95006 1-85)
chain: MRTQVTLGKEELELLDRAAKASGASRSELIRRAIHRAYGTGSKQERLAALDHSRGSWRGRDFTGTEYVDAIRGDLNERLARLGLA
For B4, the binding result in assay [5] is on record as “binds”.

The values are drawn from article PMC6118392, “VapC proteins from Mycobacterium tuberculosis share ribonuclease sequence specificity but differ in regulation and toxicity” (PLoS ONE, 2018).
